Primary screen of a compound library

Amino acid sequences for entries named in this document (tags omitted). Residues count along the entry.
UniProt Q4DA54, 1-478: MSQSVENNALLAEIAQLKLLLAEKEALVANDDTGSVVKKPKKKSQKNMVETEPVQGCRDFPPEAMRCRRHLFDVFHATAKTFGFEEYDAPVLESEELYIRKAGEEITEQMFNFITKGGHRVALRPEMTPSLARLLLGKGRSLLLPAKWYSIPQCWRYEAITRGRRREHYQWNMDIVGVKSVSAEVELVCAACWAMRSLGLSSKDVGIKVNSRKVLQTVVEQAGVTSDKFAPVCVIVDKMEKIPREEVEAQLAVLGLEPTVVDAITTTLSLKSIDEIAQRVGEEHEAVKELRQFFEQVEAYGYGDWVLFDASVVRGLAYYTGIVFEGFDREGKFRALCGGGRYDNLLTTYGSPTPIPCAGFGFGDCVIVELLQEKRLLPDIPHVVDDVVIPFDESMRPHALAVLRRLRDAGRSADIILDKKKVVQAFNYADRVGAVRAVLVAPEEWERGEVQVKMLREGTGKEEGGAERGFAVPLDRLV

The filed quantity is “Percent Effect” (%). How 0% and 100% were set is not recorded. Most values in the screen are low, and negative values occur. Compounds were drawn at random from those tested, without regard to their results.

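Enzyme assay of histidyl-tRNA synthetase; the read-out is not stated. Target: Histidine-tRNA ligase, Trypanosoma cruzi CL Brener (UniProt Q4DA54). Compounds at 30 µM. Direction is inferred from retests: higher values go with stronger inhibition. About 69,000 compounds were tested under these conditions; 0.045% (about 31) showed 50% or more at least once.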

| compound | percent effect |
|---|---|
| `CN(C)C(=O)COC[C@]12COC[C@H]1CN(Cc1ccco1)C2` | 5.607 |
| `CN1CCN(C)c2cc(NC(=O)c3cc[nH]n3)ccc2C1` | 1.01 |
| `CC1(C)CC1(C(=O)N1CC(c2cccnc2)C1)c1ccc(F)cc1` (configuration not stated) | 9.524 |
| `COc1ccc(COCC(O)CNC(=O)c2ccncc2)cc1` (configuration not stated) | 3.944 |
| `Cc1cc(C(=O)N2CCCC(n3cncn3)C2)on1` (configuration not stated) | 5.413 |
| `N#Cc1ccc(CN2CCN(C(=O)CCn3cncn3)CC2)cc1` | 3.012 |
| `OC1CCN(Cc2c(-c3ccco3)[nH]c3ncccc23)CC1` | 7.692 |
| `CCOCC(O)CN1CCN(C(=O)CC(C)(C)C)CC1` (configuration not stated) | 0 |
| `CS(=O)(=O)CCC(=O)N1CCC(c2cccc(F)c2)C1` (configuration not stated) | 0.9804 |
| `c1ccc(-c2nc3c(c(NCCn4ccnn4)n2)CCNCC3)nc1` | 7.514 |
| `CN(C)c1ccc(CNc2cncc(-n3cccn3)n2)cc1` | -3.053 |
| `Cc1cccc(NC(=O)[C@@H]2CCCN2Cc2ccc(C#N)cc2F)n1` | 8.333 |
| `Cc1nc(C2CCCN2CCc2cccs2)no1` (configuration not stated) | 5.102 |
| `CS(=O)(=O)CCC(=O)NC1(c2cccc(Br)c2)CC1` | 3.333 |
| `Cc1cc(C(=O)N2CCNC(=O)CC2)c(C)n1CC(F)(F)F` | 11.11 |
| `O=C(c1ccccc1)N1CCO[C@@H]2CN(c3ncccn3)C[C@@H]2C1` | 4.908 |
| `COc1c(CNCc2ccccc2Cn2cncn2)c(C)nn1C` | 1.02 |
| `CCOC(=O)[C@]12CCCN(Cc3nccs3)C[C@H]1CN(CC(C)C)C2` | 3.226 |
| `Cc1cc(-c2cnc(N3CCNC(=O)C3)nc2-c2ccoc2C)on1` | 2.996 |
| `COc1ccc(CCNC(=O)N2CCN(C)[C@@H]3CS(=O)(=O)C[C@@H]32)cc1` | 9.551 |
| `O=C(c1cncs1)N1CCOC(c2cc(CCO)[nH]n2)C1` (configuration not stated) | 8.333 |
| `O=C(NS(=O)(=O)c1ccc(F)c(F)c1)c1cscn1` | 0 |
| `Nc1nccc(C2CCCN(CC3CC3)C2)n1` (configuration not stated) | -0.3759 |
| `Cc1cc(Cc2ccc(F)cc2)cc(C2CCCNC2)n1` (configuration not stated) | 3.448 |
| `CC(C)c1cc(C2CCCN2C(=O)c2cn3ccsc3n2)no1` (configuration not stated) | 5.603 |
| `CSCC(CCO)NC(=O)c1cccc(C)c1Cl` (configuration not stated) | 2.484 |
| `O=C(C1CC1)N1CCc2[nH]cnc2C12CCN(C1CCOCC1)CC2` | 2.703 |
| `O=C(c1ccco1)N1CCC(CSCc2ccco2)CC1` | 13.33 |
| `O=C(CCN1CCCCO1)N1CCC(CO)(CCc2ccccc2)CC1` | 0 |
| `O=C(c1nn(-c2ccccc2F)cc1O)N1CCCCC1` | -2.339 |
| `Cc1nc(C)n(CC2CCCN(c3ncnc4sccc34)C2)n1` (configuration not stated) | 3.008 |
| `CN1CCc2c(CNc3ncccn3)n[nH]c2C1` | 3.681 |
| `COCC(=O)N1CC(=O)c2sc(Nc3ccc(F)cc3F)nc2C1` | 7.91 |
| `Cc1nnn2c1COCC(CNC(=O)c1ccc3[nH]ccc3c1)C2` (configuration not stated) | 0.8368 |
| `CCS(=O)(=O)N(C)C1CCN(C(=O)c2cc(C)cc(C)c2)CC1` | 5.172 |
| `CC(C)n1ccc(-c2cc(C(=O)NC3CC3)c3ccccn23)n1` | 3.797 |
| `CC1CN(C)CCN1C(=O)c1cnn(-c2ccc(Cl)cc2)c1` (configuration not stated) | -1.235 |
| `O=C(c1cncs1)N1CCc2[nH]nc(Nc3ccccc3)c2C1` | 9.091 |
| `O=C1CC(c2ccc(C(=O)O)cc2)c2ncn(-c3cccnc3)c2N1` (configuration not stated) | 13.64 |
| `Cn1cc(CNC2CCCOc3c(Cl)cccc32)cn1` (configuration not stated) | 4.663 |
| `COC1COC2(CCN(Cc3cccc(Cl)c3)CC2)C1` (configuration not stated) | 4.878 |
| `Cc1cc(Nc2ccc3c(c2)CC(=O)N3)nc(C(C)C)n1` | 3.093 |
| `COCC(c1ccccn1)N(C)C(=O)c1cc(-c2cccn2C)n[nH]1` (configuration not stated) | -0.5525 |
| `Cc1ncccc1CNCC1CCc2nnc(C(C)C)n2C1` (configuration not stated) | 3.509 |
| `Cc1cc(C(=O)N(C)S(C)(=O)=O)ccc1F` | 7.263 |
| `CN1CCN(C(=O)c2cn(-c3ccc(C(F)(F)F)cn3)nn2)CC1` | 10.61 |
| `COCc1ccc(CNc2cncc(-n3cccn3)n2)cc1` | 4 |
| `CC(C)NC(=O)c1nn(C)c(NC(=O)Cc2ccccc2)c1F` | 7.772 |
| `CCC(CC)S(=O)(=O)NC(=O)c1ccc2c(c1)ncn2C` | 10.5 |
| `COc1c(CNC2CCCN(c3ncccn3)C2)c(C(C)C)nn1C` (configuration not stated) | 0.578 |
| `O=C(c1ccco1)N1CCc2ncc(CN3CCOCC3)n2CC1` | 10.78 |
| `CNC(=O)C1CCCN(C(=O)C2CCC2)C1` (configuration not stated) | 3.704 |
| `CCO[C@@H]1CO[C@@]2(CCCN(S(=O)(=O)c3ccccc3)C2)C1` | 7.563 |
| `CCN(CC)S(=O)(=O)N1CCCC1CC(=O)c1cccs1` (configuration not stated) | 3.093 |
| `CCOc1ccc(C(F)(F)F)cc1NCc1cc(C)on1` | 13.29 |
| `CC1CN(C)CCN1C(=O)Nc1nc(-c2ccc[nH]2)cs1` (configuration not stated) | 31.79 |
| `CCOC(=O)[C@]12CCCN(Cc3nccs3)C[C@H]1CN(CCOC)C2` | 4.301 |
| `CC(=O)NCc1noc2c1CN(CCN1CCCC1)CC2` | 11.04 |

Once more, the final 5:

CCN(CC)S(=O)(=O)N1CCCC1CC(=O)c1cccs1 (configuration not stated) gave 3.093%.
CCOc1ccc(C(F)(F)F)cc1NCc1cc(C)on1 gave 13.29%.
CC1CN(C)CCN1C(=O)Nc1nc(-c2ccc[nH]2)cs1 (configuration not stated) gave 31.79%.
CCOC(=O)[C@]12CCCN(Cc3nccs3)C[C@H]1CN(CCOC)C2 gave 4.301%.
CC(=O)NCc1noc2c1CN(CCN1CCCC1)CC2 gave 11.04%.

Source: ChEMBL document CHEMBL3988442, “University of Dundee, Small-Polar-MMV Screening Library” (2021).